Test results: patent US5076973A, “Synthesis of dolastatin 3” (Arizona Board of Regents, priority 1988, dated 1991)
Not every detail of the peptide structures is certain; ends, links or a residue may be inferred.

Tested on: P388 lymphocytic leukemia (PS)
Assay: PS leukemia cell growth inhibition
Type: cell-based
Settings: for ED50, growth inhibition of the PS leukemia: PS (P388) leukemia, natural vs. synthetic specimen

SMILES: CC(C)C[C@@H]1NC(=O)[C@@H]2CCCN2C(=O)[C@H](C(C)C)NC(=O)c2csc(n2)CNC(=O)c2csc(n2)[C@H](CCC(N)=O)NC1=O [dolastatin 3, Cyclo-[L-Val-L-Pro-L-Leu-L-(gln)Thz-(gly)Thz]]
- Activity against the PS system (P388 lymphocytic leukemia (PS) cell growth, result in words): cell growth inhibition
- ED50, growth inhibition of the PS leukemia (listed as natural dolastatin 3): 16 mg/L
- ED50, growth inhibition of the PS leukemia (listed as synthetic dolastatin 3): 0.17 mg/L
